Laboratory results published in US20210047373A1, “BETA BARREL POLYPEPTIDES AND METHODS FOR THEIR USE” (UNIVERSITY OF WASHINGTON, priority 2018, published 2021).

Experiment: Relative densitometry (expression in Lemo21(DE3) E. coli cultures)

B1: mFAP2.4: SEQ ID NO:59 (protein)
chain: MSRAAQLLPGTWQVTMTNEDGQTSQGQMHFQPRSPYTMDIVAQGTISDGRPIVGYGKATVKTPDTLDVDITYPSLGNIKAQGQITMDSPTQFKFDATTKGAGNFTGRLTGTLQRQE
modifications: (1)..(1) optionally absent
- Densitometry (normalized 0 to 1, Table 3A): 0.7495
- Densitometry (normalized 0 to 1, Table 3B): 0.7495

B2: mFAP2.3: SEQ ID NO:58 (protein)
chain: MSRAAQLLPGTWQVTMTNEDGQTSQGQMHFQPRSPYTMDVVAQGTISDGRPIVGYGKVTVKTPDTLDVDITYPSLGNIKAQGQITMDSPTQFKFDATTKGENDFHGRLTGTLQRQE
modifications: (1)..(1) optionally absent
- Densitometry (normalized 0 to 1, Table 3A): 0.7958
- Densitometry (normalized 0 to 1, Table 3B): 0.7958

B3: mFAP2.2: SEQ ID NO:41 (protein)
chain: MSRAAQLLPGTWQVTMTNEDGQTSQGQMHFQPRSPYTMDVVAQGTISDGRPIVGYGKVTVKTPDTLDVDITYPSLGNIKAQGQITMDSPTQFKFDATTKGAGNFTGRLTGTLQRQE
modifications: (1)..(1) optionally absent
- Densitometry (normalized 0 to 1, Table 3A): 0.4749
- Densitometry (normalized 0 to 1, Table 3B): 0.4749

B4: mFAP2: SEQ ID NO:38; variant of b11L5F.1 with 6-residue insertion in the seventh β-turn (protein)
chain: MSRAAQLLPGTWQVTMTNEDGQTSQGQMHFQPRSPYTMDVVAQGTISDGRPISGYGKVTVKTPDTLDVDITYPSLGNIKAQGQITMDSPTQFKFDATTKGAGNFTGRLTGTLQRQE
modifications: (1)..(1) optionally absent
- Densitometry (normalized 0 to 1, Table 3A): 0.4332
- Densitometry (normalized 0 to 1, Table 3B): 0.4332

B5: mFAP1: SEQ ID NO:33; variant of b11L5F.2 (protein)
chain: MSRAAQLLPGTWQTTMTNEDGQTSQGQMHFQPRSPYTLDVVAQGTISDGRPISGYGKVTVKTDDTLDVDITYPSLGNIKVQGQVTMDSPTQFKFDATTSDGKKLTGTLQRQE
modifications: (1)..(1) optionally absent
- Densitometry (normalized 0 to 1, Table 3A): 0.4326
- Densitometry (normalized 0 to 1, Table 3B): 0.4326

B6: mFAP2.1: SEQ ID NO:40 (protein)
chain: MSRAAQLLPGTWQVTMTNEDGQTSQGQMHFQPRSPYTMDVVAQGTISDGRTIVGYGKVTVKTPDTLDVDITYPSLGNIKAQGQITMDSPTQFKFDATTKGAGNFTGRLTGTLQRQE
modifications: (1)..(1) optionally absent
- Densitometry (normalized 0 to 1, Table 3A): 0.4747
- Densitometry (normalized 0 to 1, Table 3B): 0.4747

B7: mFAP2b: SEQ ID NO:69; mFAP2.5 with V67I (protein)
chain: MSRAAQLLPGTWQVTMTNEDGQTSQGQWHFQPRSPYTMDIVAQGTISDGRPIVGYGKATVKTPDTLDIDITYPSLGNIKAQGQITMDSPTQFKWDATTKGENDFHGRLTGTLQRQE
modifications: (1)..(1) optionally absent
- Densitometry (normalized 0 to 1, Table 3A): 0.4858
- Densitometry (normalized 0 to 1, Table 3B): 0.4858

B8: mFAP2.5: SEQ ID NO:60; mutations of mFAP2.3 and mFAP2.4 combined (protein)
chain: MSRAAQLLPGTWQVTMTNEDGQTSQGQWHFQPRSPYTMDIVAQGTISDGRPIVGYGKATVKTPDTLDVDITYPSLGNIKAQGQITMDSPTQFKWDATTKGENDFHGRLTGTLQRQE
modifications: (1)..(1) optionally absent
- Densitometry (normalized 0 to 1, Table 3A): 0.6405
- Densitometry (normalized 0 to 1, Table 3B): 0.6405

B9: mFAP2a: SEQ ID NO:66 (protein)
chain: MSRAAQLLPGTWQATFTNEDGQTSQGQWHFQPRSPYTMDIVAQGTISDGRPIVGYGKATVKTPDTLDIDITYPSLGNIKAQGQITMDSPTQFKWDATTKGENDFHGRLTGTLQRQE
modifications: (1)..(1) optionally absent
- Densitometry (normalized 0 to 1, Table 3A): 0.3875
- Densitometry (normalized 0 to 1, Table 3B): 0.3875
